# PubChem BioAssay AID1224830 | NIAID | 2016
# Test: 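Regulators of TLR4 signalling towards TNF-alpha in macrophage-like cells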 (primary screen)
# Cells: human THP-1 monocytic leukaemia cells, TNF dual-luciferase reporter clone, PMA-differentiated to macrophage-like cells
# Reagents: siRNA pool against human genes, 50 nM
# Duration: LPS for 4 h, given about 3 days after siRNA transfection
# Conditions: bacterial LPS (TLR4 ligand), 10 ng/ml
# Detection: 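TNF firefly reporter luminescence divided by renilla, normalised to the plate median, then turned into a robust z-score for each replicate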
# Direction: TNF reporter robust z-score: higher = stronger TNF reporter response to LPS
# Hit rule: 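a well is active when its z-score exceeds 2.8 or falls below -1.5; control wells carry no call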
# The deposit covers about 18,000 reagents; below is a random part of them. Of all reagents, about 2,900 (16%) were called active. 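Calls are made per well; low scores hint the gene aids the LPS response, high scores that it dampens it.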 Repeated entries: four replicate wells of each siRNA pool.
target gene,TNF reporter robust z-score,call
FERMT2 (GeneID 10979),-0.25,inactive
FERMT2 (GeneID 10979),-0.36,inactive
FERMT2 (GeneID 10979),-0.52,inactive
FERMT2 (GeneID 10979),0,inactive
USP16 (GeneID 10600),-0.19,inactive
USP16 (GeneID 10600),1.09,inactive
USP16 (GeneID 10600),-0.06,inactive
USP16 (GeneID 10600),-0.03,inactive
CDC42EP3 (GeneID 10602),-0.79,inactive
CDC42EP3 (GeneID 10602),-0.87,inactive
CDC42EP3 (GeneID 10602),-0.78,inactive
CDC42EP3 (GeneID 10602),-0.76,inactive
SPRR3 (GeneID 6707),-0.94,inactive
SPRR3 (GeneID 6707),1.54,inactive
SPRR3 (GeneID 6707),0.18,inactive
SPRR3 (GeneID 6707),3.64,active
GPR78 (GeneID 27201),-0.62,inactive
GPR78 (GeneID 27201),-0.12,inactive
GPR78 (GeneID 27201),0.72,inactive
GPR78 (GeneID 27201),1.12,inactive
TIMM17B (GeneID 10245),,inactive
TIMM17B (GeneID 10245),-0.79,inactive
TIMM17B (GeneID 10245),-0.59,inactive
TIMM17B (GeneID 10245),-1.03,inactive
TIMM17B (GeneID 10245),-0.9,inactive
PTH1R (GeneID 5745),1.38,inactive
PTH1R (GeneID 5745),2,inactive
PTH1R (GeneID 5745),-0.22,inactive
PTH1R (GeneID 5745),0.95,inactive
ZC3H15 (GeneID 55854),0.81,inactive
ZC3H15 (GeneID 55854),2.37,inactive
ZC3H15 (GeneID 55854),1.62,inactive
ZC3H15 (GeneID 55854),2.43,inactive
PAQR6 (GeneID 79957),-0.03,inactive
PAQR6 (GeneID 79957),-0.53,inactive
PAQR6 (GeneID 79957),0.08,inactive
PAQR6 (GeneID 79957),0.63,inactive
STARD13 (GeneID 90627),-0.28,inactive
STARD13 (GeneID 90627),1.73,inactive
STARD13 (GeneID 90627),1.8,inactive
STARD13 (GeneID 90627),2.22,inactive
CLDN10 (GeneID 9071),1.76,inactive
CLDN10 (GeneID 9071),1.23,inactive
CLDN10 (GeneID 9071),0,inactive
CLDN10 (GeneID 9071),0.85,inactive
RLN2 (GeneID 6019),-0.56,inactive
RLN2 (GeneID 6019),-1.02,inactive
RLN2 (GeneID 6019),-1.64,active
RLN2 (GeneID 6019),-1.35,inactive
PDIK1L (GeneID 149420),-0.38,inactive
PDIK1L (GeneID 149420),0.52,inactive
PDIK1L (GeneID 149420),-0.16,inactive
PDIK1L (GeneID 149420),0.26,inactive
RASSF7 (GeneID 8045),-0.42,inactive
RASSF7 (GeneID 8045),-1.06,inactive
RASSF7 (GeneID 8045),-0.97,inactive
RASSF7 (GeneID 8045),-0.38,inactive
ZC3H3 (GeneID 23144),-0.03,inactive
ZC3H3 (GeneID 23144),0.71,inactive
ZC3H3 (GeneID 23144),0.19,inactive
ZC3H3 (GeneID 23144),0.09,inactive
MYO16 (GeneID 23026),0.13,inactive
MYO16 (GeneID 23026),-0.68,inactive
MYO16 (GeneID 23026),-0.53,inactive
MYO16 (GeneID 23026),-0.8,inactive
DNMBP (GeneID 23268),-0.27,inactive
DNMBP (GeneID 23268),-0.66,inactive
DNMBP (GeneID 23268),-0.69,inactive
DNMBP (GeneID 23268),-0.06,inactive
KLHL36 (GeneID 79786),0.25,inactive
KLHL36 (GeneID 79786),-0.09,inactive
KLHL36 (GeneID 79786),-0.1,inactive
KLHL36 (GeneID 79786),0.61,inactive
MARCO (GeneID 8685),0.52,inactive
MARCO (GeneID 8685),2.25,inactive
MARCO (GeneID 8685),0.42,inactive
MARCO (GeneID 8685),2.21,inactive
SH3TC2 (GeneID 79628),2.05,inactive
SH3TC2 (GeneID 79628),2.33,inactive
SH3TC2 (GeneID 79628),3.04,active
SH3TC2 (GeneID 79628),2.74,inactive
TLX1 (GeneID 3195),-0.36,inactive
TLX1 (GeneID 3195),1.24,inactive
TLX1 (GeneID 3195),0.8,inactive
TLX1 (GeneID 3195),0.71,inactive
CDC23 (GeneID 8697),0.89,inactive
CDC23 (GeneID 8697),1.08,inactive
CDC23 (GeneID 8697),0.02,inactive
CDC23 (GeneID 8697),1.11,inactive
VSIG8 (GeneID 391123),1.06,inactive
VSIG8 (GeneID 391123),0.78,inactive
VSIG8 (GeneID 391123),0.17,inactive
VSIG8 (GeneID 391123),-0.07,inactive
ITGA2B (GeneID 3674),-0.64,inactive
ITGA2B (GeneID 3674),0.1,inactive
ITGA2B (GeneID 3674),0.97,inactive
ITGA2B (GeneID 3674),-0.23,inactive
LENEP (GeneID 55891),1.2,inactive
LENEP (GeneID 55891),1.26,inactive
LENEP (GeneID 55891),0.47,inactive
LENEP (GeneID 55891),0.85,inactive
EXOC3L2 (GeneID 90332),-0.92,inactive
EXOC3L2 (GeneID 90332),-0.95,inactive
EXOC3L2 (GeneID 90332),-1.41,inactive
EXOC3L2 (GeneID 90332),-0.8,inactive
ITPRID1 (GeneID 223075),0.51,inactive
ITPRID1 (GeneID 223075),-0.77,inactive
ITPRID1 (GeneID 223075),0.26,inactive
ITPRID1 (GeneID 223075),0.05,inactive
HERPUD2 (GeneID 64224),-0.19,inactive
HERPUD2 (GeneID 64224),0.97,inactive
HERPUD2 (GeneID 64224),1.37,inactive
HERPUD2 (GeneID 64224),1,inactive
